Data on two substances can be found in US20150337356A1.

Sequences of proteins named here, by UniProt entry; tags and fusion partners are left off. A change or cut given only in a name is not applied to a line headed by its entry. A line that says so, or that is headed by a name, gives the form on record, which may keep a tag or linker. Residues count along the entry.
UniProt P78536: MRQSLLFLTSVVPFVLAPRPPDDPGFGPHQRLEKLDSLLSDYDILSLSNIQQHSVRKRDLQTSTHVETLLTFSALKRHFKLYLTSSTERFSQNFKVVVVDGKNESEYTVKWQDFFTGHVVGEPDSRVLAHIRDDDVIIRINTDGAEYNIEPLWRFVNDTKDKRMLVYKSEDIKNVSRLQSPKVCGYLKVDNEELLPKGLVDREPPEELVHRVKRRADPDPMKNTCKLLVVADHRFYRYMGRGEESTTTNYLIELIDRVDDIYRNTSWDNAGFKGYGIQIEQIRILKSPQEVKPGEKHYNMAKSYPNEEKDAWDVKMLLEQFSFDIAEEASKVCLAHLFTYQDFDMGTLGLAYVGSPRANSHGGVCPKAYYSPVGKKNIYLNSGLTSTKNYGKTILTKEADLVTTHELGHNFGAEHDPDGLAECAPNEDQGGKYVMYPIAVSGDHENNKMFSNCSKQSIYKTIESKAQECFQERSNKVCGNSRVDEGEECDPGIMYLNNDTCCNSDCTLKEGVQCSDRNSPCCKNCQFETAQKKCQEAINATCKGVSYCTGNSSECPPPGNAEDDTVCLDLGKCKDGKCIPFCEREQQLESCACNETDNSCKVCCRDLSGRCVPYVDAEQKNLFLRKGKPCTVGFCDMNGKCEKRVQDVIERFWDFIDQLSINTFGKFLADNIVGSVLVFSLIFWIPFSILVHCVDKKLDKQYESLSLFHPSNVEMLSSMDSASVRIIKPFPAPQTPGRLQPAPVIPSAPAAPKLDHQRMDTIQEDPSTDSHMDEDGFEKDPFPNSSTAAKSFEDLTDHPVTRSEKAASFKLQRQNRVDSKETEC
inactive TACE precursor (135 kD): residues 18-824 of P78536
active form of TACE (95 kD): residues 215-824 of P78536
UniProt O14672, residues 214-748: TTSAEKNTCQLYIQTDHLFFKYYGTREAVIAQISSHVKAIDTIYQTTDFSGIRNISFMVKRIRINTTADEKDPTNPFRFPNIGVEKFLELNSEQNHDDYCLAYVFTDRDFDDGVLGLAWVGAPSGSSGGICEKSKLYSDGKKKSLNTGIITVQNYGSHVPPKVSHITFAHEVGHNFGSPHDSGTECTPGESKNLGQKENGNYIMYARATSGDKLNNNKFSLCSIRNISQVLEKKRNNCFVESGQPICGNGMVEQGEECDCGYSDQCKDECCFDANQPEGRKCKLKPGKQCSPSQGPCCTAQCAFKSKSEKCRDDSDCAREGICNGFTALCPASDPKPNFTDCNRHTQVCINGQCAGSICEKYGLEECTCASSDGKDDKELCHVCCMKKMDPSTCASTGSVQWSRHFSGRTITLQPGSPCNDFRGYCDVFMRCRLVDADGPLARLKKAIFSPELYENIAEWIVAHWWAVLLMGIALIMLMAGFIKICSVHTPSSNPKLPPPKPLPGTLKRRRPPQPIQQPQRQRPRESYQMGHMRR
UniProt O75530: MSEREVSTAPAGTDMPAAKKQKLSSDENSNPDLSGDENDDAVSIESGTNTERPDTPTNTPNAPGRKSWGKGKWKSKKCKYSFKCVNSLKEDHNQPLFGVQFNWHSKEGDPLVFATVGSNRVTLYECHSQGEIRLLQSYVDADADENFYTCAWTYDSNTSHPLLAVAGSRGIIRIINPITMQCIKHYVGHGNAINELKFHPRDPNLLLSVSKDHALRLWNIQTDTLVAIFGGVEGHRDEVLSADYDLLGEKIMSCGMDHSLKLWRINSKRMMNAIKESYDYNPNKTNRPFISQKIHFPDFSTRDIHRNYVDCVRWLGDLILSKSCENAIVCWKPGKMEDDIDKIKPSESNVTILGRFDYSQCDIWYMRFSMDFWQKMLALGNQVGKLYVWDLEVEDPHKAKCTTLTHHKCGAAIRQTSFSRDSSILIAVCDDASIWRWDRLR
paxillin (wild type) (P49023, form named): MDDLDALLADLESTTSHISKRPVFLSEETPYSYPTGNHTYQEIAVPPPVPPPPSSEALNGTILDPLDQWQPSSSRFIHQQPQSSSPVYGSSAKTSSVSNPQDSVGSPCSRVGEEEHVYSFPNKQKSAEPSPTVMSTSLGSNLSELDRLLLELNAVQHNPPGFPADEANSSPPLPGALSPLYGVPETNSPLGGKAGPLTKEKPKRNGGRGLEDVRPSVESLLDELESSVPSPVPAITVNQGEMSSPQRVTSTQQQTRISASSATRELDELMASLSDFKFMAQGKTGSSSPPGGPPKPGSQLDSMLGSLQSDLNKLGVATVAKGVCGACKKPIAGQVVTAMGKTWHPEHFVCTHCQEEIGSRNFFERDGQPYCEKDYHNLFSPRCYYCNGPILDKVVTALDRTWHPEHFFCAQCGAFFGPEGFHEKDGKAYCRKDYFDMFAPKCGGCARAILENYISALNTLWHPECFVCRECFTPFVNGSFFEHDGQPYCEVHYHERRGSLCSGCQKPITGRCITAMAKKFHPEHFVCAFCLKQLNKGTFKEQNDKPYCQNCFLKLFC

Experiment [1] addresses inactive TACE precursor (135 kD) (UniProt P78536). In words: co-immunoprecipitation (summary of results).
Experiment [2] shares this target. In words: co-immunoprecipitation from transfected 293T cells, immunoblot for TACE (FIG. 1E).
The target of experiment [3] is active form of TACE (95 kD) (UniProt P78536). Kind of experiment: co-immunoprecipitation from 293T cells coexpressing all NAKC components, immunoblot for TACE (FIG. 1E); also seen on immunoprecipitation of endogenous paxillin.
The next experiment concerns the target active form of ADAM10 (UniProt O14672). In words: immunoprecipitation of paxillin from melanoma cell lines ML1 and ML3, blot for ADAM10 (FIG. 4C).

Results are given in words; binding and its absence hold for the method and conditions named. For some of these results: Binding seen in cells or lysates may run through a third protein. Some binding calls cover weakened binding; strength is not graded here.

“polycomb protein Eed (from UniProt O75530 1-441)”: the binding entry in experiment [1] and in experiment [2] was “binds” each time.

Regarding “paxillin (wild type) (from UniProt P49023 1-557)”, the binding entry (in experiment [3]; in the experiment with active form of ADAM10) was “binds” in each case.
